Test results as given in patent publication US20170074857A1, “MEDICATION ADHERENCE MONITORING DEVICE” (UNIVERSITY OF FLORIDA RESEARCH FOUNDATION, INC., priority 2014, published 2017).

Experiment: Example 4a: ROC, sensitivity/specificity and predictive value analysis of exhaled markers
Format: in vivo, human
Settings: for Sensitivity / Specificity: at cut-off; for Cut-off: exhaled marker

| Structure (SMILES) | Sensitivity (5 min) | Specificity (5 min) | Cut-off (5 min) [ppb] | Sensitivity (10 min) | Specificity (10 min) | Cut-off (10 min) [ppb] | Sensitivity (15 min) | Specificity (15 min) | Cut-off (15 min) [ppb] | Sensitivity (20 min) | Specificity (20 min) | Cut-off (20 min) [ppb] | Sensitivity (30 min) | Specificity (30 min) | Cut-off (30 min) [ppb] | Sensitivity (45 min) | Specificity (45 min) | Cut-off (45 min) [ppb] | Sensitivity (60 min) | Specificity (60 min) | other results |
| --- | --- | --- | --- | --- | --- | --- | --- | --- | --- | --- | --- | --- | --- | --- | --- | --- | --- | --- | --- | --- | --- |
| CCC(C)=O [Formulation 2-butanone, 2-butanone] | 0.77 | 1.00 | 20.9 | 1.00 | 1.00 | 15.1 | 1.00 | 1.00 | 29.8 | 1.00 | 1.00 | 40.1 | 1.00 | 1.00 | 9.2 | 1.00 | 1.00 | 2.1 | 1.00 | 1.00 | Cut-off (60 min): 2.0 ppb; ROC Area (95% confidence interval) (Time 5 min): 0.88 (0.81-0.96); ROC Area (95% confidence interval) (Time 10 min): 1.00 (1.00-1.00); ROC Area (95% confidence interval) (Time 15 min): 1.00 (1.00-1.00); ROC Area (95% confidence interval) (Time 20 min): 1.00 (1.00-1.00); ROC Area (95% confidence interval) (Time 30 min): 1.00 (1.00-1.00); ROC Area (95% confidence interval) (Time 45 min): 1.00 (1.00-1.00); ROC Area (95% confidence interval) (Time 60 min): 1.00 (1.00-1.00) |
| CCCC(C)=O [Formulation 2-pentanone, 2-pentanone] | 0.87 | 1.00 | 29.1 | 1.00 | 1.00 | 56.5 | 1.00 | 1.00 | 59.1 | 1.00 | 1.00 | 57.5 | 1.00 | 1.00 | 27.6 | 1.00 | 1.00 | 10.0 | 1.00 | 1.00 | Cut-off (60 min): 3.5 ppb; ROC Area (95% confidence interval) (Time 5 min): 0.93 (0.87-0.99); ROC Area (95% confidence interval) (Time 10 min): 1.00 (1.00-1.00); ROC Area (95% confidence interval) (Time 15 min): 1.00 (1.00-1.00); ROC Area (95% confidence interval) (Time 20 min): 1.00 (1.00-1.00); ROC Area (95% confidence interval) (Time 30 min): 1.00 (1.00-1.00); ROC Area (95% confidence interval) (Time 45 min): 1.00 (1.00-1.00); ROC Area (95% confidence interval) (Time 60 min): 1.00 (1.00-1.00) |
